Assay in all cases: cleaved PARP positive nuclei fraction relative to DMSO control; melanoma cells; higher = more apoptosis
Common to all, as to conditions: library dose: low library concentration; 72 h

Experiment [1] relates to WM115.
In experiment [2] the test system is WM1716.
Experiment [3] deals with WM1745.
The subject of experiment [4] is WM3526.
For experiment [5], the system named is WM3619.
In experiment [6] the test system is WM451Lu.

SMILES strings stand for the structures. This is one part of the list. Repeats are few or missing, and single values can be far off.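 The apoptosis fraction was the count of cleaved-PARP antibody-stained nuclei relative to all DNA-stained nuclei, imaged in 1,536-well plates. Screening doses were set so most cells survived, and baseline and induced cleaved-PARP levels vary greatly across cell lines.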

With `NC(=O)c1ccc(N(C(N)=O)c2c(F)cccc2F)nc1-c1ccc(F)cc1F` + CCc1ccc(CCOc2ccc(CC3SC(=O)NC3=O)cc2)nc1 [pioglitazone] (first compound 0.4 µM, partner dose 2 µM), the “cleaved PARP positive nuclei fraction” value in experiment [1] was found to be 134%; in experiment [2], 99%; in experiment [3], 84.9%; in experiment [4] it was 48.7%; in experiment [5], 120%; in experiment [6] it was 39.2%.

Regarding `NC(=O)c1ccc(N(C(N)=O)c2c(F)cccc2F)nc1-c1ccc(F)cc1F` + O=C(O)C(=O)Nc1sc2c(c1C(=O)O)CCNC2 [TCS401] (first compound 0.4 µM, partner dose 1.66667 µM), the “cleaved PARP positive nuclei fraction” value in experiment [1] is 59.8%; in experiment [2], 53.3%; in experiment [3], 103%; in experiment [4] it was 68.9%; in experiment [5] it was 94%; in experiment [6], 142%.

For `CC1(C)CCC(c2ccc(Cl)cc2)=C(CN2CCN(c3ccc(C(=O)NS(=O)(=O)c4ccc(N[C@H](CCN5CCOCC5)CSc5ccccc5)c(S(=O)(=O)C(F)(F)F)c4)cc3)CC2)C1` + O=c1cc(-c2cccc3c2Sc2ccccc2S3)oc(N2CCOCC2)c1 [KU55933] (first compound 0.4 µM, partner dose 1 µM), the “cleaved PARP positive nuclei fraction” value in experiment [1] came out at 163%; in experiment [2] it was 169%; in experiment [3] it was 454%; in experiment [4] it was 82%; in experiment [5] it was 118%; in experiment [6], 70.7%.

In the case of `CS(=O)(=O)c1ccc(C(=O)Nc2ccc(Cl)c(-c3ccccn3)c2)c(Cl)c1` [vismodegib] + CN1CCN(c2ccc3nc(-c4c(N)c5c(F)cccc5[nH]c4=O)[nH]c3c2)CC1 [Dovitinib] (first compound 1 µM, partner dose 0.1 µM), the “cleaved PARP positive nuclei fraction” value in experiment [1] came to 58.8%; in experiment [2], 32.8%; in experiment [3] it was 82%; in experiment [4], 50.3%; in experiment [5], 96.2%; in experiment [6] it was 97.6%.

For the molecule `Cn1cnc2c(F)c(Nc3ccc(Br)cc3Cl)c(C(=O)NOCCO)cc21` [selumetinib] + CO[C@H]1C[C@@H]2CC[C@@H](C)[C@@](O)(O2)C(=O)C(=O)N2CCCC[C@H]2C(=O)O[C@H]([C@H](C)C[C@@H]2CC[C@@H](OCCO)[C@H](OC)C2)CC(=O)[C@H](C)/C=C(\C)[C@@H](O)[C@@H](OC)C(=O)[C@H](C)C[C@H](C)/C=C/C=C/C=C/1C [everolimus] (first compound 0.015 µM, partner dose 0.02 µM), the “cleaved PARP positive nuclei fraction” value in experiment [1] is 646%; in experiment [2] it was 104%; in experiment [3], 123%; in experiment [4] it was 138%; in experiment [5] it was 140%; in experiment [6], 106%.

As to `CCCCCCCCc1ccc(CCC(N)(CO)CO)cc1` [fingolimod] + O=C(O)c1ccc(-c2c[nH]c3ncc(-c4ccccc4)cc23)cc1C1CCCC1 [GSK650394] (first compound 2 µM, partner dose 0.16 µM), the “cleaved PARP positive nuclei fraction” value worked out at 63.2% in experiment [1]; 87.8% in experiment [2]; 112% in experiment [3]; 34.2% in experiment [4]; 98.8% in experiment [5]; 65.1% in experiment [6].

In the case of `C[C@@H](N)c1ccc(C(=O)Nc2ccnc3[nH]ccc23)cc1` + COc1cc(N2CCC(N3CCN(C)CC3)CC2)ccc1Nc1ncc(Cl)c(Nc2ccccc2S(=O)(=O)C(C)C)n1 [NVP-TAE684] (first compound 0.4 µM, partner dose 0.08 µM), the “cleaved PARP positive nuclei fraction” value in experiment [1] was found to be 45.4%; in experiment [2] it was 84%; in experiment [3], 144%; in experiment [4], 69.6%; in experiment [5], 128%; in experiment [6] it was 163%.

As for `CC1(C)CCC(c2ccc(Cl)cc2)=C(CN2CCN(c3ccc(C(=O)NS(=O)(=O)c4ccc(N[C@H](CCN5CCOCC5)CSc5ccccc5)c(S(=O)(=O)C(F)(F)F)c4)cc3)CC2)C1` + CCc1ccc(CCOc2ccc(CC3SC(=O)NC3=O)cc2)nc1 [pioglitazone] (first compound 0.4 µM, partner dose 2 µM), the “cleaved PARP positive nuclei fraction” value in experiment [1] was found to be 177%; in experiment [2], 206%; in experiment [3], 583%; in experiment [4] it was 50.9%; in experiment [5] it was 121%; in experiment [6] it was 575%.

In the case of `Cn1sc(=O)n(Cc2ccccc2)c1=O` + COc1cc2c(Oc3ccc4[nH]c(C)cc4c3F)ncnc2cc1OCCCN1CCCC1 [cediranib] (first compound 0.4 µM, partner dose 0.4 µM), the “cleaved PARP positive nuclei fraction” value in experiment [1] was 69.5%; in experiment [2], 61.4%; in experiment [3], 116%; in experiment [4] it was 62.9%; in experiment [5], 99.1%; in experiment [6], 74.2%.

Take `NC(=O)c1ccc(N(C(N)=O)c2c(F)cccc2F)nc1-c1ccc(F)cc1F` + COCC[n+]1c2c(n(Cc3cnccn3)c1C)C(=O)c1ccccc1C2=O [YM155] (first compound 0.4 µM, partner dose 0.0004 µM): the “cleaved PARP positive nuclei fraction” value in experiment [1] was determined as 153%; in experiment [2], 196%; in experiment [3] it was 158%; in experiment [4] it was 77.9%; in experiment [5], 91.6%; in experiment [6] it was 118%.

Turning to `NC(=O)c1ccc(N(C(N)=O)c2c(F)cccc2F)nc1-c1ccc(F)cc1F` + COc1cc2ncnc(Nc3ccc(Oc4ccccc4)cc3)c2cc1OC [SrcI1] (first compound 0.4 µM, partner dose 2 µM), the “cleaved PARP positive nuclei fraction” value was 173% in experiment [1]; 164% in experiment [2]; 91.7% in experiment [3]; 67.1% in experiment [4]; 78.4% in experiment [5]; 96.3% in experiment [6].

Turning to `C[C@]1(O)C[C@@H](c2nc(-c3ccc4ccc(-c5ccccc5)nc4c3)c3c(N)nccn32)C1` + O=C(O)C(=O)Nc1sc2c(c1C(=O)O)CCNC2 [TCS401] (first compound 0.4 µM, partner dose 1.66667 µM), the “cleaved PARP positive nuclei fraction” value in experiment [1] is 99.1%; in experiment [2], 47.7%; in experiment [3] it was 134%; in experiment [4] it was 306%; in experiment [5], 114%; in experiment [6], 78.9%.

Take `COc1ccc(C2=N[C@@H](c3ccc(Cl)cc3)[C@@H](c3ccc(Cl)cc3)N2C(=O)N2CCNC(=O)C2)c(OC(C)C)c1` [Nutlin-3] + O=C(O)[C@@H]1[O][Sb](=[O])([O][Sb]2(=[O])[O][C@H]([C@H](O)CO)[C@H](O)[C@H](C(=O)O)[O]2)[O][C@H]([C@H](O)CO)[C@@H]1O [stibogluconate] (first compound 0.1 µM, partner dose 2 µM): the “cleaved PARP positive nuclei fraction” value came to 172% in experiment [1]; 79.4% in experiment [2]; 98.4% in experiment [3]; 17.3% in experiment [4]; 222% in experiment [5]; 152% in experiment [6].

As to `Cn1sc(=O)n(Cc2ccccc2)c1=O` + Cn1c(=O)n(-c2ccc(C(C)(C)C#N)cc2)c2c3cc(-c4cnc5ccccc5c4)ccc3ncc21 [NVP-BEZ235] (first compound 0.4 µM, partner dose 0.004 µM), the “cleaved PARP positive nuclei fraction” value in experiment [1] came out at 98.5%; in experiment [2], 172%; in experiment [3], 96%; in experiment [4], 44.7%; in experiment [5] it was 117%; in experiment [6], 91.6%.

As for `CC(=O)O[C@@]12CO[C@@H]1C[C@H](O)[C@@]1(C)C(=O)[C@H](O)C3=C(C)[C@@H](OC(=O)[C@H](O)[C@@H](NC(=O)OC(C)(C)C)c4ccccc4)C[C@@](O)([C@@H](OC(=O)c4ccccc4)[C@H]21)C3(C)C` [Docetaxel] + Cn1cc(/C=C2\C(=O)Nc3cccnc32)c2ccccc21 [GW441756] (first compound 0.0001 µM, partner dose 0.4 µM), the “cleaved PARP positive nuclei fraction” value worked out at 225% in experiment [1]; 447% in experiment [2]; 3490% in experiment [3]; 195% in experiment [4]; 134% in experiment [5]; 273% in experiment [6].

`COc1ccc(C2=N[C@@H](c3ccc(Cl)cc3)[C@@H](c3ccc(Cl)cc3)N2C(=O)N2CCNC(=O)C2)c(OC(C)C)c1` [Nutlin-3] + CCN(CC)CCNC(=O)c1c(C)[nH]c(/C=C2\C(=O)Nc3ccc(F)cc32)c1C [sunitinib] (first compound 0.1 µM, partner dose 0.4 µM): the “cleaved PARP positive nuclei fraction” value turned out to be 194% in experiment [1]; 71.7% in experiment [2]; 110% in experiment [3]; 93.1% in experiment [4]; 93.3% in experiment [5]; 83% in experiment [6].

Turning to `C[C@]1(O)C[C@@H](c2nc(-c3ccc4ccc(-c5ccccc5)nc4c3)c3c(N)nccn32)C1` + CN(c1ncccc1CNc1nc(Nc2ccc3c(c2)CC(=O)N3)ncc1C(F)(F)F)S(C)(=O)=O [PF562271] (first compound 0.4 µM, partner dose 0.08 µM), the “cleaved PARP positive nuclei fraction” value in experiment [1] worked out at 14.3%; in experiment [2] it was 25.7%; in experiment [3] it was 159%; in experiment [4], 33.2%; in experiment [5] it was 94%; in experiment [6], 138%.

As for `C[C@@H](N)c1ccc(C(=O)Nc2ccnc3[nH]ccc23)cc1` + COc1ccc(C2=N[C@@H](c3ccc(Cl)cc3)[C@@H](c3ccc(Cl)cc3)N2C(=O)N2CCNC(=O)C2)c(OC(C)C)c1 [Nutlin-3] (first compound 0.4 µM, partner dose 0.1 µM), the “cleaved PARP positive nuclei fraction” value in experiment [1] turned out to be 163%; in experiment [2] it was 96.2%; in experiment [3], 103%; in experiment [4], 83.7%; in experiment [5], 97.4%; in experiment [6] it was 63.1%.

With `CC1(C)CCC(c2ccc(Cl)cc2)=C(CN2CCN(c3ccc(C(=O)NS(=O)(=O)c4ccc(N[C@H](CCN5CCOCC5)CSc5ccccc5)c(S(=O)(=O)C(F)(F)F)c4)cc3)CC2)C1` + COc1ccc(-c2ccc3c(N4CCOCC4)nc(N4C[C@@H](C)O[C@@H](C)C4)nc3n2)cc1CO [KU0063794] (first compound 0.4 µM, partner dose 0.02 µM), the “cleaved PARP positive nuclei fraction” value in experiment [1] stood at 117%; in experiment [2], 254%; in experiment [3] it was 1010%; in experiment [4], 111%; in experiment [5], 120%; in experiment [6], 174%.

For `NC(=O)c1ccc(N(C(N)=O)c2c(F)cccc2F)nc1-c1ccc(F)cc1F` + Cn1cncc1[C@@](N)(c1ccc(Cl)cc1)c1ccc2c(c1)c(-c1cccc(Cl)c1)cc(=O)n2C [tipifarnib] (first compound 0.4 µM, partner dose 0.01 µM), the “cleaved PARP positive nuclei fraction” value is 85.5% in experiment [1]; 117% in experiment [2]; 99.9% in experiment [3]; 66.2% in experiment [4]; 101% in experiment [5]; 117% in experiment [6].

As to `NC1(c2ccc(-c3nc4ccn5c(=O)[nH]nc5c4cc3-c3ccccc3)cc2)CCC1` + O=c1cc(-c2cccc3c2Sc2ccccc2S3)oc(N2CCOCC2)c1 [KU55933] (first compound 0.4 µM, partner dose 1 µM), the “cleaved PARP positive nuclei fraction” value in experiment [1] is 301%; in experiment [2], 54%; in experiment [3], 95.6%; in experiment [4], 221%; in experiment [5], 70.5%; in experiment [6] it was 89.7%.

The values above are taken from the supplement of paper PMC4604168 (melanoma cell lines).
